# Source: ChEMBL document CHEMBL4196216, “Dinghupeptins A-D, Chymotrypsin Inhibitory Cyclodepsipeptides Produced by a Soil-Derived Streptomyces” (J Nat Prod, 2018)
# Where a name gives a salt, the structure may show the parent alone.
# Experiments:
# A549 = assay: Cytotoxicity against human A549 cells after 72 hrs by MTT assay; assay type: functional, cell-based; details: A549, 72 h
# HeLa = assay: Cytotoxicity against human HeLa cells after 72 hrs by MTT assay; assay type: functional, cell-based
structure (smiles),measurement,setting,value
COc1cccc2c1C(=O)c1c(O)c3c(c(O)c1C2=O)C[C@@](O)(C(=O)CO)C[C@@H]3O[C@H]1C[C@H](N)[C@H](O)[C@H](C)O1 [DOXORUBICIN HYDROCHLORIDE],IC50,A549,120 nM
same,IC50,HeLa,310 nM
